This test in a line: qHTS Assay to Find Inhibitors of Chronic Active B-Cell Receptor Signaling. The conditions noted are these: ABC-DLBCL IkBa-CBG/CBR reporter, luminescence ratio (green luciferase fused to IkBa over red control in TMD8 lymphoma cells), 4 h. In short, it runs like this: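 TMD8 human ABC-DLBCL cells with doxycycline-inducible IκBα–green luciferase fusion and unfused red luciferase, in 0.5% FBS medium; compounds up to 46 uM, 4 h at 37C. Green/red luminescence ratio, filter-overlap corrected, fitted to concentration-response curves.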
For orientation: Quantitative high-throughput screening tests each substance at several concentrations.

Where [1] appears, read: measured here: CBR red luminescence, cell number.
[2] abbreviates: measured here: IkBa-CBG green luminescence.

For orientation: AC50 means the midpoint of the concentration-response curve, whichever way the signal moves.

Some of the results follow. Shown are side measurements of this screen, not its main read-out; they come without a call. Most of these compounds were active or inconclusive in the main read-out, so they are no random draw. Words in brackets tell the shape of the fitted curve; partial curves, single points and poor fits give uncertain potencies.

Regarding `CC1=NN(C(=O)COc2ccccc2C)C(O)(c2ccc(Cl)cc2)C1` (stereo not drawn), the concentration at half-maximal activity (AC50) under setting [1] was 20.6 µM [falling, partial curve]. Same read-out and setting: for `C=CCn1c(SCC(=O)c2ccc(O)c(O)c2)nnc1-c1ccc(C)cc1` the value was 20.6 µM [falling, single point]; for `Cc1cc(C)cc(OC(=O)c2cccnc2)c1`, 15.8 µM [rising, partial curve, poor fit]; for `Cc1c(C)c2ccc(OCC(=O)NCCCN3CCCC3=O)cc2oc1=O`, 10 µM [rising, partial curve, poor fit]. Same read-out and setting: next, `CC(=O)c1ccc(NC(=O)C(C)OC(=O)c2ccc3c(c2)nc(C)n3-c2ccccc2)cc1` (stereo not drawn): 29.1 µM [falling, single point]; `O=C(Nc1ccccc1C(=O)Nc1ccccn1)c1cccc([N+](=O)[O-])c1`: 11.2 µM [falling, single point]; `CC(=O)NC1C(=O)N=C(SCC(=O)NCc2ccccc2)NC1=O` (stereo not drawn): 8.2 µM [rising, partial curve, poor fit].

With `CCN(C(=O)Cn1c(=O)n(Cc2ccccc2)c(=O)c2ccccc21)c1cccc(C)c1`, under setting [1], the AC50 was 29.1 µM [falling, single point]. Same read-out and setting: next, `Cc1cc(C)c2nc(NC(=O)c3ccco3)sc2c1`: 14.1 µM [falling, single point]. Still for that read-out and setting: for `CC(=O)Oc1cccc(Nc2ncnc3ccccc23)c1` the value was 17.8 µM [falling, single point]. As for `CC(C)(C)NCC1(CO)SC(N)=NC1=O` (stereo not drawn), the AC50 runs as follows: under setting [1], 20 µM [falling, partial curve, poor fit]; under setting [2], 31.6 µM [rising, partial curve, poor fit]. For the molecule `COc1ccc(S(=O)(=O)N2CCOCC2)c2ccccc12`, the concentration at half-maximal activity (AC50) under setting [1] was 25.1 µM [rising, single point].

With `O=C1/C(=C/c2cccs2)SC(=S)N1N1CCOCC1`, the AC50 under setting [1] was 11.2 µM [rising, partial curve].

On to `O=C(COC(=O)c1ccccc1)NCc1ccco1`, for which the AC50 under setting [1] is 2.24 µM [rising, partial curve, poor fit].

As to `CC(C)COC(=S)Nc1ccccc1`, the half-maximal activity concentration (AC50) under setting [1] was 2.91 µM [rising, partial curve, poor fit]. Take `Cc1[nH]n(C(N)=S)c(=O)c1N=Nc1cccc([N+](=O)[O-])c1C`: the half-maximal activity concentration (AC50) runs as follows: under setting [1], 6.31 µM [rising, partial curve, poor fit]; under setting [2], 0.631 µM [falling, partial curve, poor fit]. On to `CNC[C@@H]1Oc2ccc(NC(=O)Nc3cccc4ccccc34)cc2C(=O)N([C@@H](C)CO)C[C@@H]1C`, for which the AC50 under setting [1] is 6.51 µM [falling, full curve].

For the molecule `CCC(CC)c1nnc(NC(=O)C2CC(=O)N(C3CCCC3)C2)s1` (stereo not drawn), under setting [1], the AC50 was 8.91 µM [falling, partial curve, poor fit]. On the same count and under the same terms, for `COc1ccc(C(=O)CNc2ccccc2CO)cc1` the value was 22.4 µM [falling, single point]; for `O=C(CN1c2cccc3cccc(c23)S1(=O)=O)Nc1cccc(S(=O)(=O)N2CCOCC2)c1`, 10.3 µM [falling, partial curve]. On the same count and under the same terms, next, `Cc1cc(C)cc(NC(=O)Cn2ncn3c(cc4ccccc43)c2=O)c1`: 23.1 µM [falling, single point]; `COc1cc(OC)nc(NC(=S)NC(=O)c2ccccc2)n1`: 20.6 µM [falling, partial curve]. On the same count and under the same terms, for `COc1ccccc1NS(=O)(=O)c1ccc(C)c(NC(=O)C2CCCO2)c1` (stereo not drawn) the value was 1.46 µM [rising, partial curve, poor fit]; for `Cc1nc(NC(=O)C2CCCCC2)sc1C`, 14.6 µM [falling, partial curve]. Turning to `COc1ccc(/C=C/C(=O)N[C@H](C(=O)O)C(C)C)cc1`, the AC50 under setting [1] is 12.6 µM [falling, partial curve, poor fit]. Still for that read-out and setting: for `CCN1CCCC1CNC(=O)c1cc2c(-c3ccc(Cl)cc3)nn(C)c2s1` (stereo not drawn) the value was 29.1 µM [falling, partial curve, poor fit]; for `Cc1ccc(S(=O)(=O)NCc2csc(C)n2)cc1`, 6.31 µM [falling, partial curve, poor fit]. Still for that read-out and setting: next, `Cc1ccc(CNC(=O)CSc2nc(C)cs2)cc1`: 10 µM [rising, partial curve, poor fit]; `C=CCc1cc(Cl)ccc1OCCCNCCO`: 12.6 µM [falling, partial curve, poor fit]. On the same count and under the same terms, for `O=C(Nc1cccnc1)c1cc2cc(Br)ccc2oc1=O` the value was 3.98 µM [rising, full curve, poor fit]; for `CSc1ccc(/C=N/NC(=O)c2ccc(O)cc2)cc1`, 0.0517 µM [falling, full curve]; for `CN(C)CCC(=O)N1c2ccccc2Sc2ccc(Cl)cc21`, 15.8 µM [falling, partial curve, poor fit]. Regarding `O=C(CCC1CCCN(C(=O)c2ccoc2)C1)NCc1ccccc1F` (stereo not drawn), under setting [1], the AC50 is 20 µM [rising, partial curve, poor fit].

Take `Cc1nc2ccccc2c2oc(C(=O)N3CCN(C(=O)c4ccco4)CC3)cc12`: the AC50 under setting [1] is 32.6 µM [falling, single point]. The same measure, in the same setting: next, `O=C1CCCC/C1=C/Nc1ccc(C(=O)O)cc1`: 1.03 µM [falling, full curve]; `CCCCn1c(N)c(N(CCC(C)C)C(=O)Cc2ccc(S(=O)(=O)N3CCOCC3)s2)c(=O)[nH]c1=O`: 1.46 µM [rising, full curve, poor fit]. As to `N#C/C(=C\Nc1ccccc1O)c1nc2ccccc2o1`, the AC50 under setting [1] was 32.6 µM [falling, single point].

`O=C(/C=C/c1ccco1)Nc1ccccn1`: the AC50 under setting [1] was 6.51 µM [falling, partial curve].

On to `COc1cccc(/C=N/Nc2nn3cnnc3c3ccccc23)c1`, for which the AC50 under setting [1] is 0.731 µM [falling, partial curve].

As for `CN1CCc2c(sc3nc(SCC(N)=O)n(-c4ccccc4)c(=O)c23)C1`, the AC50 under setting [1] is 0.146 µM [rising, full curve, poor fit].

For `CC(=O)Oc1ccccc1C1=NN(C(=O)/C=C/c2ccccc2)C(c2ccccc2)C1` (stereo not drawn), the concentration at half-maximal activity (AC50) under setting [1] is 14.6 µM [rising, single point].

For the origin of these results see PubChem BioAssay AID493014 (National Center for Advancing Translational Sciences (NCATS), 2011).
